According to patent US20260183363A1, “INHIBITION OF LUTEINIZING HORMONE (LH) ACTION AS TREATMENT OF PERIMENOPAUSAL AND POSTMENOPAUSAL SYMPTOMS AND COMPLICATIONS” (RIGSHOSPITALET, priority 2022, published 2026):
These are yes or no findings as the source states them, for the method shown. Some results given as binding are weak or reduced against the parent protein; the word gives no strength.

Amino acid sequences for entries named in this document (tags omitted). A change or cut given only in a name is not applied to a line headed by its entry.
UniProt O09108: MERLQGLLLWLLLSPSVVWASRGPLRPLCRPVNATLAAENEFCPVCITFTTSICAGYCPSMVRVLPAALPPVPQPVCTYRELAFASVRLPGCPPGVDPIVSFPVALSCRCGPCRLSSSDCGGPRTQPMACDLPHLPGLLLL

Target: Mouse LH beta recombinant protein fragment, amino acids S21-L141 of SEQ ID NO: 1 (mouse) (UniProt O09108)
Assay: ELISA screening of hybridomas and subclones raised against the recombinant fragment; also IHC and Western blot, no data given

B1: LH targeting antibody (monoclonal mouse antibody against mouse LH beta) (antibody, V domains shown)
VH: QVQLQQSGPELVKPGTSLKLSCKASGYTFTDYVLTWVKQRTGQGLEWIGEIYPGSGSTSYNEKFRGKATLTADKSSNTAYMQLSSLTSEDSAVYFCAHLYYADYDFSYWGQGTLVTVSA
VL: DVLMTQIPLSLVVSLGDQASISCRSSQNIVQSNGNTYLEWYLQKPGQSPKLLIYKVSNRFSGVPDRFSGSGSGTDFTLKISRVEAEDLGVYYCFQGSHVPLTFGAGTKLELKR
Question: With B1 as the binder, how does the binding read?
Answer: binds
